Source: ChEMBL document CHEMBL3988442, “University of Dundee, Small-Polar-MMV Screening Library” (2021).

Chains of the proteins cited; added tags and fusions are not shown. Residues count along the entry.
UniProt A4I591, 1-473: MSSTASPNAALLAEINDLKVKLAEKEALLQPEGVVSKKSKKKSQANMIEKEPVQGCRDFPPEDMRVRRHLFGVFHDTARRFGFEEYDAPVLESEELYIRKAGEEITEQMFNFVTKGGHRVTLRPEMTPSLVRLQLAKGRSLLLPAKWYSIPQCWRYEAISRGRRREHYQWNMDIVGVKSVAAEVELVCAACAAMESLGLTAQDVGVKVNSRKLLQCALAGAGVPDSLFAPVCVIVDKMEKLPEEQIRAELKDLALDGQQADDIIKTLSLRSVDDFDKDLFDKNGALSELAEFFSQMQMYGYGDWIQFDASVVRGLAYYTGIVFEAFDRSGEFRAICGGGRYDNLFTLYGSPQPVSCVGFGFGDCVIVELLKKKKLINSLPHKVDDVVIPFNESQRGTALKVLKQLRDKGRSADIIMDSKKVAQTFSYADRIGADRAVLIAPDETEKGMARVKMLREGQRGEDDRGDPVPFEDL
UniProt P9WPC5, whole entry: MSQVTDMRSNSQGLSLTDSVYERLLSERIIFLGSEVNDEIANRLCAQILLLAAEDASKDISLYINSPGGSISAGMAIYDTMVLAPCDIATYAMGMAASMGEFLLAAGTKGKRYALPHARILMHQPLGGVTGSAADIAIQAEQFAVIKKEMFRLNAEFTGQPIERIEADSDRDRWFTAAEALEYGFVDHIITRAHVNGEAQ
UniProt P9WPC3, whole entry partner: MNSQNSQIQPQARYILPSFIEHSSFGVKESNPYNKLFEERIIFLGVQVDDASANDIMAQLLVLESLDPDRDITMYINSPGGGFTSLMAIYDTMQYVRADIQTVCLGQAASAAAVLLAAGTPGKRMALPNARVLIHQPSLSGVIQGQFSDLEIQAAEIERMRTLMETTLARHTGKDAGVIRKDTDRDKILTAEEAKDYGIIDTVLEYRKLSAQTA

Results are given as percent effect.
How 0% and 100% were set is not recorded. Most values in the screen are low, and negative values occur.
This is an unselected part of the compounds tested.
A dash means the value is not listed here; it may have been measured.

LiHisRS: 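Enzyme assay of histidyl-tRNA synthetase; the read-out is not stated. Target: Histidine-tRNA ligase, Leishmania infantum (UniProt A4I591). Concentration: 30 µM. Direction is inferred from retests: higher values go with stronger inhibition. The assay is labelled LdHisRS but filed under L. infantum. Of about 69,000 compounds tested this way, about 410 (0.6%) reached 50% or more in at least one test.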
Toxoplasma: 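Assay of Toxoplasma gondii numbers, read through their beta-galactosidase reporter with a colour substrate. Tested at 10 µM. Higher reads as fewer parasites (inferred from which compounds were picked for retests). Size under these conditions: about 67,000 compounds, about 260 of them at 50% or above in at least one test.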
ClpP1P2: 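Protease assay of ClpP1P2, read by the AMC dye that it sets free. Target: ClpP1P2, Mycobacterium tuberculosis (UniProt P9WPC5 and UniProt P9WPC3). Concentration: 50 µM. Higher reads as stronger inhibition, judged from the few compounds that gave an IC50. Most other retested compounds had strongly negative values. Of about 69,000 compounds tested this way, about 10 (0.015%) reached 50% or more in at least one test.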
T. brucei: 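Whole-parasite assay of Trypanosoma brucei over 72 hours; the read-out is not stated. Compounds at 30 µM. Direction is inferred from retests: higher values go with stronger inhibition. Values scatter widely below zero; nearly all retest evidence comes from the higher of the two concentrations used. Size under these conditions: about 64,000 compounds, about 940 of them at 50% or above in at least one test.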
Leishmania in macrophages: 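Cell assay of Leishmania donovani living inside macrophages; the read-out is not stated. Compounds at 30 µM. The record gives no direction; compounds that gave an IC50 in retests scored well above the rest, so higher reads as stronger inhibition. Size under these conditions: about 69,000 compounds, about 1,000 of them at 50% or above in at least one test.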

| # | SMILES | LiHisRS | Toxoplasma | ClpP1P2 | T. brucei | Leishmania in macrophages |
|---|---|---|---|---|---|---|
| 1 | `CC(=O)N1[C@@H](C(=O)NCC2CC2)C[C@@H]2CN(Cc3nccs3)C[C@@H]21` | 17.43 | - | 8.225 | - | - |
| 2 | `CC(=O)N(CCc1ccccc1)CC(=O)NC(C)(C)C#N` | 4.839 | - | -14.09 | -17.07 | 21.65 |
| 3 | `COCCCNC(=O)Nc1cccc2c1CCN(S(C)(=O)=O)C2` | 13.39 | 3.488 | -2.053 | 16.02 | -7.481 |
| 4 | `O=C(C1CCOC1)N1C[C@H]2CN(Cc3ccncc3)C(=O)[C@H]2C1` (some centres undefined) | -9.901 | - | -14.77 | - | - |
| 5 | `CCOC(CC)C(=O)NCCC(=O)N1CCN(c2ccccn2)CC1` (centres undefined) | 8.571 | -3.871 | -7.698 | 26.89 | 13.34 |
| 6 | `CC(=O)c1cc(CN2CCCC2c2nc3ccc(C)cc3[nH]2)cs1` (centres undefined) | 9.375 | 8.66 | -2.239 | 2.362 | 15.52 |
| 7 | `CC(=O)N1CCN(C2CCCCc3ccccc32)CC1` (centres undefined) | 23.08 | -4.139 | -2.827 | - | 3.861 |
| 8 | `O=C(CC1CC1)N1CCN(Cc2cccnc2)c2ncccc2C1.O=C(O)C(F)(F)F.O=C(O)C(F)(F)F` | - | 2.233 | - | -18.28 | -5.831 |
| 9 | `O=C1[C@@H]2CCN(Cc3ccccn3)C[C@@H]2OCCN1c1ccccc1` | 19 | - | -9.483 | - | - |
| 10 | `COCCN(CCC#N)S(=O)(=O)c1ccc(F)cc1F` | 9.091 | 1.559 | 7.38 | -14.48 | -2.709 |
| 11 | `COCC1COCCC12CCN(C(=O)COc1ccccc1C)CC2` (centres undefined) | 0 | 16.11 | -4.959 | -39.24 | 24.83 |
| 12 | `CC(=O)N(c1ccc(F)cc1)c1nc(CN2CCCC2C(C)C)cs1` (centres undefined) | 27.96 | -14.23 | -4.835 | 15.63 | 11.36 |
| 13 | `CN(C)CC1CN(Cc2nc(-c3cccnc3)no2)CCO1` (centres undefined) | 20 | 12.35 | -11.36 | -1.518 | 18.42 |
| 14 | `Cc1ccsc1C(=O)NCc1ccnc(C2CCCOC2)n1` (centres undefined) | -2.797 | 19.48 | -7.952 | 54.51 | 15.53 |
| 15 | `Cc1cccc(CN2CCS(=O)(=O)[C@@H]3CCN(S(C)(=O)=O)CC[C@@H]32)n1` | 5.263 | - | 7.639 | - | - |
| 16 | `NS(=O)(=O)CCNC(=O)c1ccc(-c2ccc(F)cc2)cc1F` | 16.04 | 10.19 | 4.924 | -2.447 | 21.63 |
| 17 | `Cc1cnn(CCNCc2ccc(OCc3csc(C)n3)cc2)c1` | 22.33 | 4.405 | -12.78 | 48.68 | 23.97 |
| 18 | `NCC1Cc2cc(Oc3cc(F)c(CN4CCCC4)c(F)c3)ccc2O1` (centres undefined) | 57.5 | 54.73 | 72.61 | - | 18.62 |
| 19 | `CN(C)CCn1c2c(ccc1=O)CC(NC(=O)NC1CCCC1)CC2.O=C(O)C(F)(F)F` (centres undefined) | - | 0.6022 | - | -38.22 | -11.36 |
| 20 | `CN(CC(C)(C)C)c1ccc(C(=O)NCCCc2ccccn2)cn1` | 10.26 | 9.177 | -0.9747 | -8.211 | -19.49 |
| 21 | `CC(=O)N[C@@H]1Cc2ccccc2[C@H]1Nc1nnc(C2CC2)o1` | 10.26 | 6.748 | -5.239 | - | 23.92 |
| 22 | `Cc1nc(C(=O)N(CC2CCCO2)c2ccncc2)cs1` (centres undefined) | 14.13 | 16.98 | -4.301 | 10.75 | -11.43 |
| 23 | `CCc1cnc(N2CCN(Cc3ccno3)CC2)s1` | 26.76 | 2.157 | -3.139 | -51.93 | 27.91 |
| 24 | `CCCc1nc(C(C)(C)NC(=O)c2ccnn2C)no1` | 9.333 | -5.664 | -0.1735 | -0.8088 | 5.181 |
| 25 | `CCCS(=O)(=O)N1C[C@H]2OC(=O)N(CCc3cccc(Cl)c3)[C@H]2C1` | 16.5 | - | -7.887 | - | - |
| 26 | `c1cnn(CCCO[C@@H]2CC[C@H]3[C@H]2OCCN3CC2CCOCC2)c1` | 13.89 | - | -16.27 | - | - |
| 27 | `[H][C@@]12C[C@H](C)O[C@]1([H])CCN(C(=O)CCOc1ccccc1)C2` | - | -7.994 | - | -342.1 | 18.21 |
| 28 | `O=C(c1ccc(-n2ccnc2)nn1)N1CCCCC1Cn1cccn1` (centres undefined) | 3.175 | 5.723 | -7.152 | -36.92 | 8.568 |
| 29 | `Cc1nc(C)n(CC2CCCCN2Cc2cn3ccccc3n2)n1` (centres undefined) | 13.79 | 11.39 | -27.42 | -1.676 | 40.97 |
| 30 | `COCc1nnc(NC(=O)CN2C(=O)c3ccccc3NC2C(C)C)s1` (centres undefined) | 13.04 | - | -343.4 | -5.84 | 33.02 |
| 31 | `CCCn1cnnc1CN(C)C(=O)CCC(=O)Nc1cc(C)ccc1F` | -0.7937 | 11.85 | -11.53 | -36.22 | 31.11 |
| 32 | `CCN1CCNC(=O)C12CCN(S(=O)(=O)c1ccccc1)CC2` | 13.59 | -0.9879 | -10.09 | -26.93 | -2.665 |
| 33 | `CCOC(=O)CNC(=O)N1CCc2onc(-c3ccc(Cl)cc3)c2C1` | 6.383 | -5.073 | -7.299 | -24.17 | -17.81 |
| 34 | `Cc1nn2c(N3CCCC(C(N)=O)C3)cc(-c3ccccc3)nc2c1C` (centres undefined) | 14.52 | 17.76 | -51.54 | -48.28 | -4.526 |
| 35 | `Cc1cc2c(N3CCCC(OCc4cccnc4)C3)ncnc2s1` (centres undefined) | 8.571 | 2.68 | -11.22 | 3.683 | 39.52 |
| 36 | `[H][C@@]12CS(=O)(=O)C[C@]1([H])N(Cc1nc(C)n[nH]1)CCN2CC1CC1` | - | -23.94 | - | -51.75 | -36.76 |
| 37 | `O=C(CCc1ccc2c(c1)OCO2)N1CCCC(n2cccn2)C1` (centres undefined) | 8.264 | 0 | -12.3 | -4.044 | 8.705 |
| 38 | `O=C(CCc1cc(O)no1)N1CCCC(OCc2cccnc2)C1` (centres undefined) | 17.65 | 3.615 | -15.85 | -17.32 | -3.379 |
| 39 | `CN1CCN(S(C)(=O)=O)c2cc(F)ccc21` | 29.41 | 0.1763 | 6.075 | 13.3 | 1.892 |
| 40 | `Cn1cc2ncn(C3CCN(c4ccccc4F)CC3)c(=O)c2n1` | 12.24 | -8.649 | 10.78 | -13.16 | 13.19 |
| 41 | `CN(Cc1ccno1)C(=O)c1cccc(CC2CCNCC2)c1` | 13.49 | 5.572 | -1.013 | -66.37 | 14.78 |
| 42 | `O=C(CN1CCOC(Cn2cccn2)C1)NCc1cccs1` (centres undefined) | 0 | 0 | -2.214 | 14.72 | 18.46 |
| 43 | `O=C(CCc1ccccc1F)NS(=O)(=O)c1ccc2c(c1)OCCCO2` | 18.92 | 1.069 | 9.498 | 24.02 | 0.9897 |
| 44 | `COCc1ccccc1NC(=O)CCNC(=O)c1ccoc1` | 25.33 | -13.44 | 0.171 | -1.87 | 20.94 |
| 45 | `COCCn1c2c(ccc1=O)CC(NCc1cccnc1OC)CC2.O=C(O)C(F)(F)F.O=C(O)C(F)(F)F` (centres undefined) | - | -6.221 | - | 7.205 | -7.637 |
| 46 | `CCn1c(CN(C)C)nnc1C1CCN(Cc2ccc(C)s2)CC1` | 8.8 | -33.09 | -18.39 | -41.86 | 33.59 |
| 47 | `CCC(CO)NCc1ccc(-c2ccc(F)cc2)o1.Cl` (centres undefined) | - | 26.22 | - | -14.66 | 4.62 |
| 48 | `Cc1ccc(CN2CC[C@@H]3[C@@H](CO[C@H]3CN(C)C)C2)o1` | 10 | - | -7.132 | - | - |
| 49 | `Cc1cc(C(=O)N2CCC3(CC(=O)NC3=O)C2)c(-c2ccccc2)o1` (centres undefined) | 15.09 | -1.459 | -13.9 | 1.934 | -19.49 |

For reference, 3 entries once more:

SMILES	LiHisRS	Toxoplasma	ClpP1P2	T. brucei	Leishmania in macrophages
CCCc1nc(C(C)(C)NC(=O)c2ccnn2C)no1	9.333	-5.664	-0.1735	-0.8088	5.181
CN(C)CC1CN(Cc2nc(-c3cccnc3)no2)CCO1 (centres undefined)	20	12.35	-11.36	-1.518	18.42
CN(C)CCn1c2c(ccc1=O)CC(NC(=O)NC1CCCC1)CC2.O=C(O)C(F)(F)F (centres undefined)	-	0.6022	-	-38.22	-11.36